This passage reports binding results from PMC5241803, “Structural basis for the recognition and degradation of host TRIM proteins by Salmonella effector SopA” (Nature Communications, 2017).

By UniProt entry, the sequences of proteins in these tests, tags left out.
UniProt Q8ZNR3: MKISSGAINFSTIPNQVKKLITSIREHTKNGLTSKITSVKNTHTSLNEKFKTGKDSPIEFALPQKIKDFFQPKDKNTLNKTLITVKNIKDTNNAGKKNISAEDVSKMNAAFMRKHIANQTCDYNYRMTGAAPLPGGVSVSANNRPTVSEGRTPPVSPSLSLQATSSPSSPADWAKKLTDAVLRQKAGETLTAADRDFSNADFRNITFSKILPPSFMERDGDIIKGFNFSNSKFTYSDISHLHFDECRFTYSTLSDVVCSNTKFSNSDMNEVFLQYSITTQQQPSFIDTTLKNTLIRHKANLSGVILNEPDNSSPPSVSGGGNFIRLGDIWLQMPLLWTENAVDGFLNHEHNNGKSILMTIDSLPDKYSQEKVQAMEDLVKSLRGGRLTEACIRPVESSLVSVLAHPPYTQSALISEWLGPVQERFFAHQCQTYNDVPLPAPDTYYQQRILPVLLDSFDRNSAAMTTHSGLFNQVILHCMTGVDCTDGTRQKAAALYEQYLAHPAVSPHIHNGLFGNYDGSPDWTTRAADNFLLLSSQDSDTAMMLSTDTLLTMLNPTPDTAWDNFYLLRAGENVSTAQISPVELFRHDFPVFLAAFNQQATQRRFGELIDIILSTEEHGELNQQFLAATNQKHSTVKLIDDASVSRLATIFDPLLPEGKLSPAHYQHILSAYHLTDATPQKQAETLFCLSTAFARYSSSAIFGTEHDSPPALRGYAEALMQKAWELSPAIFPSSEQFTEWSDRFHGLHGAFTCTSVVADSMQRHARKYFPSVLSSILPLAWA

Experiment [1] concerns the target GFP-SopA (S. Typhimurium SL1344) (UniProt Q8ZNR3). The experiment can be described thus: affinity purification with mass spectrometry.
Experiment [2] concerns the target SopA–HA (S. Typhimurium SL1344) (UniProt Q8ZNR3). Description: affinity purification with mass spectrometry.

These are yes or no findings as the source states them, for the method shown. Binding seen in cells or lysates may run through a third protein. These calls come from enrichment with a bait or labelling near it, and not all partners need be listed.

B1: MBP-TRIM56 (natural protein, human, UniProt Q9BRZ2 1-755, looked up)
chain: MVSHGSSPSLLEALSSDFLACKICLEQLRAPKTLPCLHTYCQDCLAQLADGGRVRCPECRETVPVPPEGVASFKTNFFVNGLLDLVKARACGDLRAGKPACALCPLVGGTSTGGPATARCLDCADDLCQACADGHRCTRQTHTHRVVDLVGYRAGWYDEEARERQAAQCPQHPGEALRFLCQPCSQLLCRECRLDPHLDHPCLPLAEAVRARRPGLEGLLAGVDNNLVELEAARRVEKEALARLREQAARVGTQVEEAAEGVLRALLAQKQEVLGQLRAHVEAAEEAARERLAELEGREQVARAAAAFARRVLSLGREAEILSLEGAIAQRLRQLQGCPWAPGPAPCLLPQLELHPGLLDKNCHLLRLSFEEQQPQKDGGKDGAGTQGGEESQSRREDEPKTERQGGVQPQAGDGAQTPKEEKAQTTREEGAQTLEEDRAQTPHEDGGPQPHRGGRPNKKKKFKGRLKSISREPSPALGPNLDGSGLLPRPIFYCSFPTRMPGDKRSPRITGLCPFGPREILVADEQNRALKRFSLNGDYKGTVPVPEGCSPCSVAALQSAVAFSASARLYLINPNGEVQWRRALSLSQASHAVAALPSGDRVAVSVAGHVEVYNMEGSLATRFIPGGKASRGLRALVFLTTSPQGHFVGSDWQQNSVVICDGLGQVVGEYKGPGLHGCQPGSVSVDKKGYIFLTLREVNKVVILDPKGSLLGDFLTAYHGLEKPRVTTMVDGRYLVVSLSNGTIHIFRVRSPDS
notes: TRIM56, human, full length, in pMAL-C2X; also called recombinant TRIM56; not shown: MBP, N-terminal, kept
With B1, the binding result in experiment [1] and in experiment [2] was “binds” in each case.

B2: endogenous TRIM65 (protein, UniProt Q6PJ69 1-517)
chain: MAAQLLEEKLTCAICLGLYQDPVTLPCGHNFCGACIRDWWDRCGKACPECREPFPDGAELRRNVALSGVLEVVRAGPARDPGPDPGPGPDPAARCPRHGRPLELFCRTEGRCVCSVCTVRECRLHERALLDAERLKREAQLRASLEVTQQQATQAEGQLLELRKQSSQIQNSACILASWVSGKFSSLLQALEIQHTTALRSIEVAKTQALAQARDEEQRLRVHLEAVARHGCRIRELLEQVDEQTFLQESQLLQPPGPLGPLTPLQWDEDQQLGDLKQLLSRLCGLLLEEGSHPGAPAKPVDLAPVEAPGPLAPVPSTVCPLRRKLWQNYRNLTFDPVSANRHFYLSRQDQQVKHCRQSRGPGGPGSFELWQVQCAQSFQAGHHYWEVRASDHSVTLGVSYPQLPRCRLGPHTDNIGRGPCSWGLCVQEDSLQAWHNGEAQRLPGVSGRLLGMDLDLASGCLTFYSLEPQTQPLYTFHALFNQPLTPVFWLLEGRTLTLCHQPGAVFPLGPQEEVLS
Turning to B2, the binding result in experiment [1] and in experiment [2] was “binds” each time.
